Laboratory results published in patent US10604476B2, “Fluorinated amide derivatives and their uses as therapeutic agents” (Trillium Therapeutics Inc., priority 2015, dated 2020).

Assays:
[1] = tested on: maximal electroshock seizure; assay: Maximal Electroshock Seizure (MES) rat model; assay type: in vivo; conditions: po, Table 7 (rotorod vs MES)
Method: Male, Sprague-Dawley rats and CD-1 mice were used for all studies. All animals were allowed ad-lib access to food and water except during experiment. Animals were housed within an animal vivarium maintained under a 12 h light:dark cycle (lights on: 07:00 h), and all experiments were conducted in the animals light phase. For all experiments, animals were habituated to the vivarium for a minimum of 72 h before experimentation. The experimental procedures used in the present investigation were conducted under the Association for Assessment and Accreditation of Laboratory Animal Care (AAALAC) and the Canadian Council on Animal Care (CCAC) guidelines. All compounds were sonicated in 5% Tween 80® in saline or methylcellulose 0.5% (wgt/vol), using MC and sterile water and injected in a dose volume of 5 ml/kg or 10 ml/kg (rat), and 10 ml/kg (mouse). Drugs were administered by either the oral, intraperitoneal or intravenous route. Male Sprague-Dawley rats of body weight 80-100 g were used for these studies. Each experiment was conducted over 3 consecutive days. On day 1 and 2, each rat received a single electrical stimulus (150 mA, 0.2 s duration, 60 Hz) via corneal electrodes moistened with saline (Shock stimulator type 221: Harvard apparatus). […] Typically this reflected approximately 70-90% of the initial group. […] On the test day following a defined drug pretreatment period, rats received a maximal electroshock (150 mA, 0.2 s duration, 60 Hz) via corneal electrodes. Protection was defined as absence of a full tonic seizure within 10 s of stimulus delivery. Twenty minutes before the MES procedure, the animals were tested on a fixed speed rotorod (best score from 3 trials at 8 r.p.m, trial duration=60 s) to give an early assessment of drug effect on gross motor function.

6 Hz psychomotor seizure = assay: Mouse 6 Hz model; assay type: in vivo; conditions: Table 8 (rotorod vs 6 Hz)
Method: Male, Sprague-Dawley rats and CD-1 mice were used for all studies. All animals were allowed ad-lib access to food and water except during experiment. Animals were housed within an animal vivarium maintained under a 12 h light:dark cycle (lights on: 07:00 h), and all experiments were conducted in the animals light phase. For all experiments, animals were habituated to the vivarium for a minimum of 72 h before experimentation. The experimental procedures used in the present investigation were conducted under the Association for Assessment and Accreditation of Laboratory Animal Care (AAALAC) and the Canadian Council on Animal Care (CCAC) guidelines. All compounds were sonicated in 5% Tween 80® in saline or methylcellulose 0.5% (wgt/vol), using MC and sterile water and injected in a dose volume of 5 ml/kg or 10 ml/kg (rat), and 10 ml/kg (mouse). Drugs were administered by either the oral, intraperitoneal or intravenous route. […] Preliminary experiments established that these stimulus parameters elicited a psychomotor seizure, defined as the expression of at least one of the following behaviors: stun/immobility, forelimb clonus, straub tail, vibrissae tremor, lateral head movement in >95% of control animals. Protection was defined as complete absence of all the above behaviors within 20 s of stimulus delivery. The effective dose of compound necessary to protect against psychomotor seizures to 50% of controls (i.e. ED50) was determined by curve fitting program (Prism v.4.02).

## NC(=O)COc1cc(C(F)(F)F)cc(C(F)(F)F)c1 [I(F), 2-[3,5 bis(trifluoromethyl)-phenoxy]acetamide;]
[1]
  PI: >27
6 Hz psychomotor seizure
  PI: >3.3

## C[C@@H](Oc1cc(Cl)cc(C(F)(F)F)c1)C(N)=O [I(D), (2R)-2-[3-chloro-5-(trifluoromethyl)-phenoxy]propanamide]
[1]
  PI: >22
6 Hz psychomotor seizure
  PI: >3.5

## CN(CC(N)=O)c1cc(C(F)(F)F)cc(C(F)(F)F)c1 [I(A), 2-[(3,5-Bis-trifluoromethyl-phenyl)-methyl-amino]-acetamide]
[1]
  PI: >10
6 Hz psychomotor seizure
  PI: >2.5
